This is an account of results in US4769373A, “Anti-arrhythmic azabicyclic compounds” (Richter Gedeon Vegyeszeti Gyar Rt., priority 1983, dated 1988).

What is called LD50 is the dose expected to kill half of the subjects tested. A lower LD50 goes with a more toxic substance.

One series is described as follows: in vivo. To be noted: mouse, iv.
Series [1] deals with disorders of the cardiac rhythm provoked by aconitine. The procedure: The anti-arrhytmic effect was tested in Wistar rats. The animals first received aconitine intravenously to provoke disorders of the cardiac rhythm [M. Fekete and J. Borsy: Med. Exp. Basel, 10, 93 (1964)] and then i.v. the test (or reference) compound. […] The dose required to restore the rhythm in 50% (ED50 mg/kg) was determined.

SMILES strings stand for the structures.

`CCN(CC)CC(=O)Nc1c(C)cccc1C` [Lidocaine, reference compound] showed an LD50 in “in vivo” of 25.1 mg/kg. The LD50/ED50 index in series [1] (LD50 mice i.v. / ED50 rats i.v.) worked out at 3.26. In series [1] (relative to Lidocaine = 1), the “index ratio (index of the test compound : index of Lidocaine)” value came out at 1.
